Assay results taken from the supplement of paper PMC4604168 (melanoma cell lines).
The list shows a part of the results. Repeats are few or missing, and single values can be far off.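 Imaging used 1,536-well plates; nuclei positive for cleaved PARP by antibody were divided by total DNA-stained nuclei to yield the apoptosis fraction. Doses for screening kept most cells viable, and cell lines differ markedly in resting and induced cleaved-PARP levels.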

system: WM451Lu; assay: cleaved PARP positive nuclei fraction relative to DMSO control; melanoma cells; higher = more apoptosis; conditions: library dose: low library concentration; 72 h

Structure (SMILES) | cleaved PARP positive nuclei fraction [%]
N#CC[C@H](C1CCCC1)n1cc(-c2ncnc3[nH]ccc23)cn1 [ruxolitinib] + CC(=O)O[C@@]12CO[C@@H]1C[C@H](O)[C@@]1(C)C(=O)[C@H](O)C3=C(C)[C@@H](OC(=O)[C@H](O)[C@@H](NC(=O)OC(C)(C)C)c4ccccc4)C[C@@](O)([C@@H](OC(=O)c4ccccc4)[C@H]21)C3(C)C [Docetaxel] (first compound 1 µM, partner dose 0.0001 µM) | 47.8
N#CC[C@H](C1CCCC1)n1cc(-c2ncnc3[nH]ccc23)cn1 [ruxolitinib] + C[C@]1(O)C[C@@H](c2nc(-c3ccc4ccc(-c5ccccc5)nc4c3)c3c(N)nccn32)C1 [OSI906] (first compound 1 µM, partner dose 0.4 µM) | 87.9
Cc1cn(-c2cc(NC(=O)c3ccc(C)c(Nc4nccc(-c5cccnc5)n4)c3)cc(C(F)(F)F)c2)cn1 [nilotinib] + O=C(O)C(=O)Nc1sc2c(c1C(=O)O)CCNC2 [TCS401] (first compound 0.2 µM, partner dose 1.66667 µM) | 34.4
Cc1cc(Nc2cc(N3CCN(C)CC3)nc(Sc3ccc(NC(=O)C4CC4)cc3)n2)n[nH]1 [Tozasertib] + CS(=O)(=O)CCNCc1ccc(-c2ccc3ncnc(Nc4ccc(OCc5cccc(F)c5)c(Cl)c4)c3c2)o1 [lapatinib] (first compound 0.006 µM, partner dose 0.8 µM) | 43.2
CC[C@]1(O)C[C@H]2CN(CCc3c([nH]c4ccccc34)[C@@](C(=O)OC)(c3cc4c(cc3OC)N(C=O)[C@H]3[C@@](O)(C(=O)OC)[C@H](OC(C)=O)[C@]5(CC)C=CCN6CC[C@]43[C@@H]65)C2)C1 [vincristine] + COc1ccc(-c2ccc3c(N4CCOCC4)nc(N4C[C@@H](C)O[C@@H](C)C4)nc3n2)cc1CO [KU0063794] (first compound 0.0001 µM, partner dose 0.02 µM) | 118
O=C(Nc1cc(C(F)(F)F)cc(C(F)(F)F)c1)c1cc(Cl)ccc1O + Cn1nnc2c(C(N)=O)ncn2c1=O [temozolomide] (first compound 0.016 µM, partner dose 2 µM) | 96.9
CCCCCCCCCCCCCCCCCCOP(=O)([O-])OC1CC[N+](C)(C)CC1 [Perifosine] + Cn1cc(/C=C2\C(=O)Nc3cccnc32)c2ccccc21 [GW441756] (first compound 0.4 µM, partner dose 0.4 µM) | 332
N#CC[C@H](C1CCCC1)n1cc(-c2ncnc3[nH]ccc23)cn1 [ruxolitinib] + CC1(C)CCC(c2ccc(Cl)cc2)=C(CN2CCN(c3ccc(C(=O)NS(=O)(=O)c4ccc(N[C@H](CCN5CCOCC5)CSc5ccccc5)c(S(=O)(=O)C(F)(F)F)c4)cc3)CC2)C1 [ABT263] (first compound 1 µM, partner dose 0.4 µM) | 62.1
O=c1[nH]nc(Sc2ncc([N+](=O)[O-])s2)n1-c1ccc2c(c1)OCCO2 + COc1cc2ncnc(Nc3ccc(Oc4ccccc4)cc3)c2cc1OC [SrcI1] (first compound 0.2 µM, partner dose 2 µM) | 59.6
CC[C@]1(O)C[C@H]2CN(CCc3c([nH]c4ccccc34)[C@@](C(=O)OC)(c3cc4c(cc3OC)N(C=O)[C@H]3[C@@](O)(C(=O)OC)[C@H](OC(C)=O)[C@]5(CC)C=CCN6CC[C@]43[C@@H]65)C2)C1 [vincristine] + CN(C)S(=O)(=O)c1ccc2c(c1)/C(=C/c1cc3c([nH]1)CCCC3)C(=O)N2 [SU6656] (first compound 0.0001 µM, partner dose 0.4 µM) | 296
O=C(Nc1cc(C(F)(F)F)cc(C(F)(F)F)c1)c1cc(Cl)ccc1O + COc1ccc(C2=N[C@@H](c3ccc(Cl)cc3)[C@@H](c3ccc(Cl)cc3)N2C(=O)N2CCNC(=O)C2)c(OC(C)C)c1 [Nutlin-3] (first compound 0.016 µM, partner dose 0.1 µM) | 59.2
O=C(/C=C/c1cccnc1)NCCCCC1CCN(C(=O)c2ccccc2)CC1 + COc1ccc(Cl)c(Nc2nc3ccccc3nc2NS(=O)(=O)c2cccc(NC(=O)C(C)(C)N)c2)c1 [XL147] (first compound 0.01 µM, partner dose 0.8 µM) | 64.3
